# Values from PubChem BioAssay AID1224830 (NIAID, 2016).
# Test: 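Regulators of TLR4 signalling towards TNF-alpha in macrophage-like cells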 (primary screen)
# Cell system: human THP-1 monocytic leukaemia cells, TNF dual-luciferase reporter clone, PMA-differentiated to macrophage-like cells
# Knock-down reagent: siRNA pool against human genes, 50 nM
# Timing: LPS for 4 h, given about 3 days after siRNA transfection
# Challenge: bacterial LPS (TLR4 ligand), 10 ng/ml
# Measurement: 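TNF firefly reporter luminescence divided by renilla, normalised to the plate median, then turned into a robust z-score for each replicate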
# Direction: TNF reporter robust z-score: higher = stronger TNF reporter response to LPS
# Hit rule: 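Each well counts as active if its z-score is over 2.8 or under -1.5; controls are left without a call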
# Shown is a random part of about 18,000 reagents. About 2,900 of all reagents (16%) were called active. 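Calls are made per well; low scores hint the gene aids the LPS response, high scores that it dampens it.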 Repeated entries: four replicate wells of each siRNA pool.
Gene,TNF reporter robust z-score,call
FGF9 (GeneID 2254),-0.85,inactive
FGF9 (GeneID 2254),-0.47,inactive
FGF9 (GeneID 2254),-1.4,inactive
FGF9 (GeneID 2254),-1.28,inactive
JPH3 (GeneID 57338),0.53,inactive
JPH3 (GeneID 57338),0.49,inactive
JPH3 (GeneID 57338),1.13,inactive
JPH3 (GeneID 57338),0.15,inactive
MIR9-1HG (GeneID 10485),-0.16,inactive
MIR9-1HG (GeneID 10485),-0.61,inactive
MIR9-1HG (GeneID 10485),-0.28,inactive
MIR9-1HG (GeneID 10485),-0.03,inactive
UBOX5 (GeneID 22888),1.63,inactive
UBOX5 (GeneID 22888),0.12,inactive
UBOX5 (GeneID 22888),2.64,inactive
UBOX5 (GeneID 22888),-0.97,inactive
SEC61A1 (GeneID 29927),-1.59,active
SEC61A1 (GeneID 29927),-1.31,inactive
SEC61A1 (GeneID 29927),-0.66,inactive
SEC61A1 (GeneID 29927),-1.19,inactive
STK17B (GeneID 9262),0.4,inactive
STK17B (GeneID 9262),0.61,inactive
STK17B (GeneID 9262),1.02,inactive
STK17B (GeneID 9262),0.56,inactive
C3orf38 (GeneID 285237),-1.62,active
C3orf38 (GeneID 285237),-0.67,inactive
C3orf38 (GeneID 285237),-1.06,inactive
C3orf38 (GeneID 285237),-1.47,inactive
NAP1L1 (GeneID 4673),-0.19,inactive
NAP1L1 (GeneID 4673),0.44,inactive
NAP1L1 (GeneID 4673),0.15,inactive

Already shown: 7 of the entries above.
Gene,TNF reporter robust z-score,call
STK17B (GeneID 9262),0.61,inactive
STK17B (GeneID 9262),1.02,inactive
STK17B (GeneID 9262),0.56,inactive
C3orf38 (GeneID 285237),-1.62,active
C3orf38 (GeneID 285237),-0.67,inactive
C3orf38 (GeneID 285237),-1.06,inactive
C3orf38 (GeneID 285237),-1.47,inactive

Further records follow:
Gene,TNF reporter robust z-score,call
ZFP2 (GeneID 80108),2.76,inactive
ZFP2 (GeneID 80108),3.96,active
ZFP2 (GeneID 80108),3.16,active
ZFP2 (GeneID 80108),2.06,inactive
IGLL1 (GeneID 3543),0.22,inactive
IGLL1 (GeneID 3543),0.29,inactive
IGLL1 (GeneID 3543),1.32,inactive
YTHDF3 (GeneID 253943),0.01,inactive
YTHDF3 (GeneID 253943),1.23,inactive
YTHDF3 (GeneID 253943),0.15,inactive
YTHDF3 (GeneID 253943),1.42,inactive
GTF3C2 (GeneID 2976),0.71,inactive
GTF3C2 (GeneID 2976),1.73,inactive
GTF3C2 (GeneID 2976),1.55,inactive
GTF3C2 (GeneID 2976),0.66,inactive
FCSK (GeneID 197258),-0.79,inactive
FCSK (GeneID 197258),-1.02,inactive
FCSK (GeneID 197258),-1.17,inactive
FCSK (GeneID 197258),0.11,inactive
KCNA1 (GeneID 3736),0.67,inactive
KCNA1 (GeneID 3736),-0.18,inactive
KCNA1 (GeneID 3736),-1.21,inactive
KCNA1 (GeneID 3736),-0.65,inactive
NGF (GeneID 4803),-0.48,inactive
NGF (GeneID 4803),-0.71,inactive
NGF (GeneID 4803),-0.04,inactive
NGF (GeneID 4803),0.46,inactive
LYLDT1 (GeneID 121273),-0.15,inactive
LYLDT1 (GeneID 121273),-0.9,inactive
LYLDT1 (GeneID 121273),0.37,inactive
LYLDT1 (GeneID 121273),0.03,inactive
CCNH (GeneID 902),0.85,inactive
CCNH (GeneID 902),-0.33,inactive
CCNH (GeneID 902),0.5,inactive
CCNH (GeneID 902),-0.39,inactive
CSTF1 (GeneID 1477),2.26,inactive
CSTF1 (GeneID 1477),1.49,inactive
CSTF1 (GeneID 1477),0.65,inactive
CSTF1 (GeneID 1477),3.59,active
DRAM2 (GeneID 128338),-0.98,inactive
DRAM2 (GeneID 128338),-1.24,inactive
DRAM2 (GeneID 128338),-0.64,inactive
DRAM2 (GeneID 128338),-0.76,inactive
DTWD1 (GeneID 56986),0.33,inactive
DTWD1 (GeneID 56986),0.48,inactive
DTWD1 (GeneID 56986),0.25,inactive
DTWD1 (GeneID 56986),-0.01,inactive
